Data as given in PubChem BioAssay AID652243 (Drosophila RNAi Screening Center, 2013).
Purpose: 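Fly regulators of androgen-dependent reporter output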 (primary screen). Cell system: Drosophila S2R+ cells. Reagent: long dsRNA against Drosophila genes. Time to read-out: 72 h (48 h, then 24 h hormone). Treatment: synthetic androgen R1881 at 10 nM for 24 h. Measurement: 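Per-well raw luminescence of the androgen-driven firefly reporter and of the Renilla control, two replicates each, without normalisation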. Scale: firefly reporter light: higher = more light from androgen-responsive reporter; Renilla control light: higher = more constitutive control signal (cell number, transfection). Hit rule: 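Across duplicate plates, a knock-down whose log firefly/Renilla ratio shifted a set fold down or up from the GFP/LacZ control mean was a hit; the downward cut appears as both 1.5 and 3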. Meaning of the calls: active = hit: reporter lowered or raised; inactive = no hit.
In all, the deposit lists about 24,000 reagents; below is a random part of those that have a named target and a result. Over the whole deposit, 246 (1%) are marked active. 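Plates not normalised; calls are printed but the firefly/Renilla ratio behind them is not deposited; fold cut for lowering reported inconsistently.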 Raw values are not corrected between plates. Reagents against one gene are numbered here. A plus sign joins genes that one reagent is predicted to hit. Not stated in the record: the amount of reagent.

no.	gene	reagent	firefly reporter light, replicate 1	firefly reporter light, replicate 2	Renilla control light, replicate 1	Renilla control light, replicate 2	activity call
1	CG4572	1	51141	48189	3.75e5	3.56e5	inactive
2	CG7276	1	2.66e5	1.93e5	2.81e6	2.37e6	inactive
3	Hexo1	1	1.44e5	1.53e5	2.69e6	2.63e6	inactive
4	CG11562	1	84280	83879	7.17e5	9.52e5	inactive
5	SCAR	1	1.94e5	2.13e5	2.33e6	2.40e6	inactive
6	CG3777	1	1.12e6	1.05e6	2.79e6	4.10e6	inactive
7	CG3777	2	8.74e5	7.16e5	1.24e6	1.31e6	inactive
8	sced	1	8.23e5	7.40e5	1.68e6	1.51e6	inactive
9	CG8072	1	1.94e5	1.85e5	1.86e6	1.44e6	inactive
10	TwdlG	1	44382	55616	1.41e6	1.48e6	inactive
11	TwdlG	2	1.53e5	1.65e5	4.84e5	7.07e5	inactive
12	yip2	1	2.05e5	2.16e5	9.37e5	1.38e6	inactive
13	CG13215	1	3.77e5	3.88e5	2.23e6	2.05e6	inactive
14	Tim10 + CG42497	1	1.17e6	8.20e5	2.66e6	3.01e6	inactive
15	sima	1	8.50e5	6.66e5	1.71e6	1.46e6	inactive
16	sima	2	8.43e5	8.51e5	1.68e6	1.63e6	inactive
17	CG8483	1	54786	1.07e5	6.44e5	5.70e5	inactive
18	Ubqn	1	97977	70260	5.68e5	4.99e5	inactive
19	Ubqn	2	6.65e5	8.15e5	9.23e5	1.00e6	inactive
20	CG1172 + Or83a	1	48609	1.05e5	1.77e6	1.15e6	inactive
21	CG7069	1	86269	61153	7.52e5	5.98e5	inactive
22	CG7069	2					inactive
23	CG7069	3					inactive
24	CG6059	1	75459	69276	5.09e5	5.38e5	inactive
25	RanBP3	1	6.01e5	5.78e5	1.92e6	2.54e6	inactive
26	RanBP3	2	3.12e5	2.49e5	6.79e5	9.09e5	inactive
27	Grip84	1	23231	82619	1.96e5	4.01e5	inactive
28	Grip84	2	4.03e5	3.67e5	5.03e5	4.58e5	inactive
29	EAChm	1	1.41e5	1.68e5	1.90e6	2.01e6	inactive
30	CG34180	1	7.80e5	7.65e5	1.95e6	2.72e6	inactive

Not a retest: 6 of the entries above.
no.	gene	reagent	firefly reporter light, replicate 1	firefly reporter light, replicate 2	Renilla control light, replicate 1	Renilla control light, replicate 2	activity call
3	Hexo1	1	1.44e5	1.53e5	2.69e6	2.63e6	inactive
4	CG11562	1	84280	83879	7.17e5	9.52e5	inactive
5	SCAR	1	1.94e5	2.13e5	2.33e6	2.40e6	inactive
6	CG3777	1	1.12e6	1.05e6	2.79e6	4.10e6	inactive
7	CG3777	2	8.74e5	7.16e5	1.24e6	1.31e6	inactive
8	sced	1	8.23e5	7.40e5	1.68e6	1.51e6	inactive

The results go on.
no.	gene	reagent	firefly reporter light, replicate 1	firefly reporter light, replicate 2	Renilla control light, replicate 1	Renilla control light, replicate 2	activity call
31	Gbeta5	1	1.43e5	1.65e5	1.58e6	2.25e6	inactive
32	Dph5	1	33783	55408	5.78e5	6.56e5	inactive
33	Dph5	2	1.80e5	1.84e5	5.97e5	6.43e5	inactive
34	CG30383	1	1.55e5	1.85e5	4.40e5	3.66e5	inactive
35	CG7166	1	1.07e5	1.41e5	1.84e6	2.36e6	inactive
36	Pis	1	6.54e5	6.49e5	5.23e6	3.40e6	inactive
37	Pis	2	4.70e5	2.19e5	1.26e6	1.21e6	inactive
38	CG34248	1	3.70e5	1.47e5	2.48e5	1.12e5	inactive
39	casp	1	6.41e5	6.60e5	2.37e6	1.89e6	inactive
40	Pkd2	1	1.88e5	1.92e5	8.00e5	9.80e5	inactive
41	Pkd2	2	3.40e5	3.40e5	6.17e5	8.55e5	inactive
42	Tudor-SN	1	8.82e5	1.06e6	8.52e5	1.12e6	inactive
43	CG17361	1	5.96e5	7.11e5	6.43e5	5.71e5	inactive
44	CG9853	1	16473	22226	2.24e5	2.13e5	inactive
45	CG9853	2	5.36e5	7.36e5	8.32e5	1.11e6	inactive
46	CG9853	3	4.81e5	7.27e5	7.10e5	1.14e6	inactive
47	hig	1	3.17e5	2.47e5	1.62e6	1.13e6	inactive
48	hig	2	3.30e5	6.31e5	8.79e5	1.32e6	inactive
49	hig	3	4.01e5	7.60e5	1.17e6	1.82e6	inactive
50	hig	4	6.95e5	4.46e5	8.14e5	4.11e5	inactive
51	Mst27D	1	2.48e5	2.06e5	5.37e5	4.37e5	inactive
52	CG13000	1	2.92e5	2.70e5	2.05e6	1.38e6	inactive
53	CG13000	2	1.77e6	1.38e6	1.45e6	1.14e6	inactive
54	Sf3b2	1	6.33e5	5.14e5	1.87e6	1.88e6	inactive
55	Alp2	1	3.56e5	3.69e5	2.36e6	2.22e6	inactive
56	Alp2	2	2.19e5	1.42e5	3.62e5	3.24e5	inactive
57	RpS27A	1	2.17e5	2.69e5	1.40e6	1.55e6	inactive
58	RpS27A	2	5.04e5	3.24e5	1.07e6	1.22e6	inactive
59	ND-MWFE	1	3.07e5	2.16e5	2.27e6	2.06e6	active
60	FeCH	1	86254	89752	1.13e6	7.92e5	inactive
61	FeCH	2	2.18e5	2.28e5	5.20e5	8.85e5	inactive
62	Zw10	1	1.44e5	68567	6.91e5	5.33e5	inactive
63	Zw10	2	5.64e5	6.27e5	4.16e5	3.61e5	inactive
64	CG32432	1	1.68e5	1.97e5	1.72e6	2.04e6	inactive
65	BaraB	1	4.02e5	3.41e5	2.57e6	2.42e6	inactive
66	CG14650	1	5.04e5	6.50e5	1.97e6	1.81e6	inactive
67	CG14650	2	1.35e6	1.16e6	1.08e6	8.01e5	inactive
68	Rpn12	1	1.48e5	1.00e5	8.38e5	7.71e5	inactive
69	Rpn12	2	4.04e5	4.07e5	1.05e6	9.73e5	inactive
70	CG5191	1	1.39e5	1.09e5	1.42e6	1.44e6	inactive
71	CG5191	2	1.69e5	2.10e5	3.04e6	3.03e6	inactive
72	CG5191	3	6.68e5	7.42e5	1.44e6	1.88e6	inactive
73	CG5191	4	2.52e5	2.16e5	2.25e5	5.31e5	inactive
74	Veneno	1	56907	80069	1.09e6	1.05e6	inactive
